Binding data for one molecule are collected here from PMC7668044, “Insights into bacterial cell division from a structure of EnvC bound to the FtsX periplasmic domain” (Proceedings of the National Academy of Sciences of the …, 2020).

Results are given in words; binding and its absence hold for the method and conditions named. A result given as binding can be weak or reduced; the word gives no strength. Sequences can lack the tags named with a protein.

The assay concerns the target NlpD LytM domain, bacterial two-hybrid fusion. Put plainly: two-hybrid; bacterial adenylate cyclase two hybrid (BACTH) system; E. coli BTH101 cells grown on IPTG/X-gal LB plates at room temperature; coloration followed over a time course.

B1: AmiC, bacterial two-hybrid fusion (enzyme, UniProt P63883 1-417)
chain: MSGSNTAISRRRLLQGAGAMWLLSVSQVSLAAVSQVVAVRVWPASSYTRVTVESNRQLKYKQFALSNPERVVVDIEDVNLNSVLKGMAAQIRADDPFIKSARVGQFDPQTVRMVFELKQNVKPQLFALAPVAGFKERLVMDLYPANAQDMQDPLLALLEDYNKGDLEKQVPPAQSGPQPGKAGRDRPIVIMLDPGHGGEDSGAVGKYKTREKDVVLQIARRLRSLIEKEGNMKVYMTRNEDIFIPLQVRVAKAQKQRADLFVSIHADAFTSRQPSGSSVFALSTKGATSTAAKYLAQTQNASDLIGGVSKSGDRYVDHTMFDMVQSLTIADSLKFGKAVLNKLGKINKLHKNQVEQAGFAVLKAPDIPSILVETAFISNVEEERKLKTATFQQEVAESILAGIKAYFADGATLARRG
Turning to B1, the binding result was “binds”.
